Reference: paper PMC6912744
Results are given in words; binding and its absence hold for the method and conditions named. Binding seen in cells or lysates may run through a third protein. Some binding calls cover weakened binding; strength is not graded here.

Protein sequences, listed by entry. Tags and fused reporters are not part of them.
UniProt Q6ZNE5: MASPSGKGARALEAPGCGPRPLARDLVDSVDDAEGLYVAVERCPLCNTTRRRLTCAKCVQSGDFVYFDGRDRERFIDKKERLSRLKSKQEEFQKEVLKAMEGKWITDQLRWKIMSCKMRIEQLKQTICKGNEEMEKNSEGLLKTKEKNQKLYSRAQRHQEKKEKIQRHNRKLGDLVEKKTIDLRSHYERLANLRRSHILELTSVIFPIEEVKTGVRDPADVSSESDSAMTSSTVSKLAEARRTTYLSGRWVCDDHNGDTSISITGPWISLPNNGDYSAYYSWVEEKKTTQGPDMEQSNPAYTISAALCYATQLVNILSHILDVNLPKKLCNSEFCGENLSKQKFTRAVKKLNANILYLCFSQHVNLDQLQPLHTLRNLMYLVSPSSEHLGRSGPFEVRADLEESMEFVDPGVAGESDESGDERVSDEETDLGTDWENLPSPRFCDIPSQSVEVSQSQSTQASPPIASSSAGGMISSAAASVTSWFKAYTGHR
UniProt P56962: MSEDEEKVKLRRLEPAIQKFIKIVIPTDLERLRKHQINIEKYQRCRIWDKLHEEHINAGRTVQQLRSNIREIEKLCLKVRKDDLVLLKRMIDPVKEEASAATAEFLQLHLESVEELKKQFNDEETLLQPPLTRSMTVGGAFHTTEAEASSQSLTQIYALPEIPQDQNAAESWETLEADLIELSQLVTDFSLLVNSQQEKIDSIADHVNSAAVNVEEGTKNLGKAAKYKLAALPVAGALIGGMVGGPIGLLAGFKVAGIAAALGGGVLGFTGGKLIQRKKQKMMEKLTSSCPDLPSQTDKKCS
UniProt Q14457: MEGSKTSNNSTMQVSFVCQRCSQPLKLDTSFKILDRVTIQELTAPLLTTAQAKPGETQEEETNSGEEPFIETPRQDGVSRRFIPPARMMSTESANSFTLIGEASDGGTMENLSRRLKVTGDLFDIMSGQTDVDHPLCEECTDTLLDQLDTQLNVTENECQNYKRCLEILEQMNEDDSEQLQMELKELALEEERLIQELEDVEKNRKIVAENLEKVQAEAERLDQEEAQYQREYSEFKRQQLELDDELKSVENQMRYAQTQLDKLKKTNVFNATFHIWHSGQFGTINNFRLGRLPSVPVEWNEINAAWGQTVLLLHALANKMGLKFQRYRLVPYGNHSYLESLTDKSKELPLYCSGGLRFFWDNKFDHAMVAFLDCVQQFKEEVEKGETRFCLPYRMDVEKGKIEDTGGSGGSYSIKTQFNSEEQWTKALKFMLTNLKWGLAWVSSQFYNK
UniProt O94817: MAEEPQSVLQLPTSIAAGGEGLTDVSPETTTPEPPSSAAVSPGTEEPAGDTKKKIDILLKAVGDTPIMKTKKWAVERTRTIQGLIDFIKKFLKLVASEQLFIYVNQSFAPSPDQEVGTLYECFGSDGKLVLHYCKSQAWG

What was measured:
[1] = molecular target: autophagy related protein 14L (ATG14L) (human (endogenous in U2OS)) (UniProt Q6ZNE5); experiment: proximity ligation; DuoLink in fixed U2OS cells, endogenous STX17 and ATG14L; siControl or siBAP31 (24 h), with or without BFA (1 µg/mL, 8 h); confocal imaging
HA-ATG14L [2] = molecular target: HA-ATG14L (UniProt Q6ZNE5); experiment: condition: only normal conditions (no BAP31 knockdown, ER stress or starvation); co-IP; U2OS cells transfected with HA-ATG14L; normal conditions (siControl, no BFA, no starvation); cell lysates, western blotting
[3] = molecular target: T1, B-cell receptor associated protein 31 (BAP31) (human (endogenous in U2OS and normal human fibroblasts)) (UniProt P51572); experiment: co-IP; endogenous proteins of normal human fibroblast cells (Figure S6)
T1 sequence: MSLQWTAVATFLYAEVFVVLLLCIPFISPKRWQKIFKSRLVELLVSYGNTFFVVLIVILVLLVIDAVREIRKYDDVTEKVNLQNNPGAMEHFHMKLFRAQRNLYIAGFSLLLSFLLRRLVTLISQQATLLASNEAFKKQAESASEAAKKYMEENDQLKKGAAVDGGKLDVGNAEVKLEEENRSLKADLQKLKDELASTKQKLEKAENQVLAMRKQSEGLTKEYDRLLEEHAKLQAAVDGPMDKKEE

[4] = molecular target: T1, B-cell receptor associated protein 31 (BAP31) (human (endogenous in U2OS and normal human fibroblasts)); experiment: co-IP; endogenous proteins of U2OS cells; cells cross-linked with 1 mM DSP before lysis; antibody covalently immobilised on protein A/G plus-agarose; western blotting; also with or without BFA (1 µg/mL, 12 h)
HA-ATG14L [5] = molecular target: HA-ATG14L (UniProt Q6ZNE5); experiment: co-IP; U2OS cells transfected with HA-ATG14L; siBAP31 (24 h), BFA (1 µg/mL, 8 h) or starvation; cell lysates, western blotting
[6] = molecular target: T1, B-cell receptor associated protein 31 (BAP31) (human (endogenous in U2OS and normal human fibroblasts)); experiment: proximity ligation; DuoLink in fixed U2OS cells with antibodies to BAP31 and STX17; with or without BFA (1 µg/mL, 12 h); confocal imaging

Row | Substance | binding [1] | binding (HA-ATG14L [2]) | binding [3] | binding [4] | binding (HA-ATG14L [5]) | binding [6]
1 | syntaxin 17 (STX17) (from UniProt P56962 1-302) | binds | no binding | binds | binds | binds | binds
2 | Beclin1 (from UniProt Q14457 1-450) | – | – | – | no binding | – | –
3 | ATG12 (from UniProt O94817 1-140) | – | – | – | no binding | – | –
4 | autophagy related protein 14L (ATG14L) (from UniProt Q6ZNE5 1-492) | – | – | – | no binding | – | –
